Measurements: PMC10037838

Protein sequences, listed by entry. Tags and fused reporters are not part of them. Residues count along the entry.
UniProt P16422, 24-314: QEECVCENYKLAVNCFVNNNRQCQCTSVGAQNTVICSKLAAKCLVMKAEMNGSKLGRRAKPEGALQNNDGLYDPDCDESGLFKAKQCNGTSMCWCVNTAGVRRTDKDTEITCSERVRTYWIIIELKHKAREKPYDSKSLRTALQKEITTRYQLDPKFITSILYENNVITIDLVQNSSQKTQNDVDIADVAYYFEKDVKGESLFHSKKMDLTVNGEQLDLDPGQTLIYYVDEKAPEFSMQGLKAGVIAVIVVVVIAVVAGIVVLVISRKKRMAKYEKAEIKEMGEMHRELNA
UniProt P06731, 35-685: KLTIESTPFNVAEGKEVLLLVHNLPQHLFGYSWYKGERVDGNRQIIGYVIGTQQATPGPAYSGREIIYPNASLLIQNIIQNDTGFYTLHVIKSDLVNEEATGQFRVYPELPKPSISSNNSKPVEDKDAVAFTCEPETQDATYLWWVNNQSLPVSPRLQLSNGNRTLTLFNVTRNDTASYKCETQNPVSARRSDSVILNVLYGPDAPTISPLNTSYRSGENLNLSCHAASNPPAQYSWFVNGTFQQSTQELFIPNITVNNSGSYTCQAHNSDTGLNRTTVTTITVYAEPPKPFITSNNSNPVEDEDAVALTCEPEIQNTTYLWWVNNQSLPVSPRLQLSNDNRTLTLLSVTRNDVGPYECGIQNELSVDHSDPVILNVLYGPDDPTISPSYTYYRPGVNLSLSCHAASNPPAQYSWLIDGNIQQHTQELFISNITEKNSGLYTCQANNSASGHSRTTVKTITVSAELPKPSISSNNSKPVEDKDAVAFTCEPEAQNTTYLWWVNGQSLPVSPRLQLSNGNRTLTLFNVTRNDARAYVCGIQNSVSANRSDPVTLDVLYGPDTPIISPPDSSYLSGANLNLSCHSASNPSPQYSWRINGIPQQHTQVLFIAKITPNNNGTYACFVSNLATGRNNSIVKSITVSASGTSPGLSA

Columns and labels:
[1] = molecular target: EpCAM (on exosome surface) (UniProt P16422); experiment: strand displacement with electrochemical readout (DPV); conditions: whole exosomes, block strand B2 displaced; 5' thiol (HS), on gold nanoparticles; Aptamer-GNP conjugates in PBS pH 7.4, exosomes 1 h (temperature of capture not stated); released block strands on the electrode 37 C 1 h; protein on the cell surface; single-stranded DNA
CEA (on exosome surface) = CEA (on exosome surface) (UniProt P06731); experiment: as above; conditions: whole exosomes, block strand B1 displaced; 5' thiol (HS), on gold nanoparticles; Aptamer-GNP conjugates in PBS pH 7.4, exosomes 1 h (temperature of capture not stated); released block strands on the electrode 37 C 1 h; protein on the cell surface; single-stranded DNA

Row | Sequence | binding result [1] | binding result (CEA (on exosome surface))
1 | TTTTTTCACTACAGAGGTTGCGTCTGTCCCACGTTGTCATGGGGGGTTGGCCTG [Aptamer2 (Apt2)] | binds | –
2 | TTTTTTTCGCGCGAGTCGTCTGGGGAACCATCGAGTTACACCGACCTTCTATGTGCGGCCCCCCGCATCGTCCTCCC [Aptamer1 (Apt1)] | – | binds

The exact form of at least one protein or probe is not confirmed. Where cells or extracts were used, other partners may take part. At least one verdict rests on a figure or table, not on a statement of the authors.
